From paper PMC7038939
The exact form of at least one protein or probe is not confirmed. For some of these results: Whether high values mean tight binding is not given here for every scale.

Key:
Assay in all cases: EMSA
Settings in all cases: recombinant protein; protein details: His-tag removed by TEV
[1] = test system: DNA gyrase GyrA-R766A holoenzyme (Escherichia coli)
[2] = test system: DNA gyrase GyrA-C716R holoenzyme (Escherichia coli)
[3] = test system: DNA gyrase WT holoenzyme (GyrA2GyrB2) (Escherichia coli)
[4] = test system: DNA gyrase GyrA-4R+ holoenzyme C716R,P762R,S813R,I823R (Escherichia coli)

Which binding signal (fold weaker than WT) [1] does the source give for “GGGAAACCTGTCGTGCCAGCTGCATTAATGAATCGGCCAACGCGCGGGGAGAGGCGGTTTGCGTATTGGGCGCTCTTCCGCTTCCTCGCTCACTGACTCGCTGCGCTCGGTCGTTCGGCTGCGGCGAGCGGTATCAGCTCACTCAAAGGCGGTAATACGGTTATCCACAGAATCAGGGGATAACGCAGGAAAGAACATGT (double strand) [EMSA DNA substrate (about 200 bp)]” here?
The binding signal (fold weaker than WT) was 20.

What about the binding signal (fold difference from WT Kd) [2] of the same sequence?
The binding signal (fold difference from WT Kd) was < 4.

What about the Kd [3] of the same sequence?
Its Kd is 10 nM.

What about the binding signal (fold difference from WT Kd) [4] of the same sequence?
The binding signal (fold difference from WT Kd) was < 4.
